According to US10011659B2, “Compositions and methods for treating cancer resistant to a tyrosine kinase inhibitor (TKI)” (Yeda Research and Development Co. Ltd., priority 2014, dated 2018):
Entries after “also recorded” stand apart in the source; their conditions may differ. At least one structure is not confirmed: it was looked up by name or label, or the drawing left a doubt.

System: EGFR phosphorylation in PC9ER-AZDR cells
Assay: Western blot (immunoblot) of EGFR phosphorylation
Assay type: cell-based, human
Details: 1 μM, 6 hours

C=CC(=O)Nc1cccc(Nc2nc(Nc3ccc(N4CCN(C(C)=O)CC4)cc3OC)ncc2C(F)(F)F)c1 [CO-1686, rociletinib]
EGFR phosphorylation: remained phosphorylated; also recorded: failed to inhibit EGFR phosphorylation
